The results in this text go back to paper doi:10.1101/2019.12.20.869974.

Assay [1] addresses T1, carbohydrate responsive element-binding protein alpha (ChREBPα), full-length (mouse) (UniProt Q99MZ3).
T1 sequence: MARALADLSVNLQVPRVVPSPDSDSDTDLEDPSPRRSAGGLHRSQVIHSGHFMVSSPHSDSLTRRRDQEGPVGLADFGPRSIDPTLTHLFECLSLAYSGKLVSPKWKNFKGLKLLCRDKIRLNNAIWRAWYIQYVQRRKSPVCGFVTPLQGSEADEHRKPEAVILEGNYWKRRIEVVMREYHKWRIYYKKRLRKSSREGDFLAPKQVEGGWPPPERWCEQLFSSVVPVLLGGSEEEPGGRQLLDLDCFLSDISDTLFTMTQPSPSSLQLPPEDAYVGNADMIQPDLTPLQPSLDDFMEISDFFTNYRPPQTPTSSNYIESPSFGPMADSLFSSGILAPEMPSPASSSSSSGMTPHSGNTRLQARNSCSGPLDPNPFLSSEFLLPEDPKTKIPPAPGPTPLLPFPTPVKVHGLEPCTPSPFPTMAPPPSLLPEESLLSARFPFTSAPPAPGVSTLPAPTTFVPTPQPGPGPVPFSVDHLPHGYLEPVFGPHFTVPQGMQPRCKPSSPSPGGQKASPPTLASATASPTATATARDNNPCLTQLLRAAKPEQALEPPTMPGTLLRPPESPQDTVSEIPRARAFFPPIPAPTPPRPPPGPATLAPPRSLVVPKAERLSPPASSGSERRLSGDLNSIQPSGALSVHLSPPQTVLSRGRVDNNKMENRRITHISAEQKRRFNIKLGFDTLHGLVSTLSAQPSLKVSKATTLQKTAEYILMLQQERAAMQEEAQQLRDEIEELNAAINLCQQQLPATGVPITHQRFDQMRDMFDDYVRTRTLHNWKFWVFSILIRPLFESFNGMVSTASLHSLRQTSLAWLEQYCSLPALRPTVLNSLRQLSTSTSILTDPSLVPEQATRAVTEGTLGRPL
As to the kind of experiment: co-IP.

Assay [2] addresses T2, liver X receptor alpha (LXRα), full-length (not stated (human or mouse cDNA cloned)) (UniProt Q13133).
T2 sequence: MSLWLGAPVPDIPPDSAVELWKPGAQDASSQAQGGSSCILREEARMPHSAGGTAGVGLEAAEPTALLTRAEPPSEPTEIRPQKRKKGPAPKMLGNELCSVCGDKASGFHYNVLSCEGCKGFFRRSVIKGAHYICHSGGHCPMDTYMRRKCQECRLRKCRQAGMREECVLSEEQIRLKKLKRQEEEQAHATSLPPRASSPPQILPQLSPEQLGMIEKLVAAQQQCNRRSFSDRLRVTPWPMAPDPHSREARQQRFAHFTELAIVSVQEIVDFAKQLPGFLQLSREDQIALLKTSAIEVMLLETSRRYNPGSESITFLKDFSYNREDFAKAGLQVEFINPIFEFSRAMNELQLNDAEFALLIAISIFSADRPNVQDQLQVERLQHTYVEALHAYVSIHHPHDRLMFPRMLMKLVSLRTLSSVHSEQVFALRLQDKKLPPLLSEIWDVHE
As to the kind of experiment: co-IP.

These are yes or no findings as the source states them, for the method shown. In cells and extracts the contact can be indirect. Some entries that bind do so weakly or less than the wild type. For some assays here: Tags and fused reporters may be left off the sequences shown.

B1: liver X receptor alpha (LXRα), full-length (protein, UniProt Q13133 1-447)
chain: MSLWLGAPVPDIPPDSAVELWKPGAQDASSQAQGGSSCILREEARMPHSAGGTAGVGLEAAEPTALLTRAEPPSEPTEIRPQKRKKGPAPKMLGNELCSVCGDKASGFHYNVLSCEGCKGFFRRSVIKGAHYICHSGGHCPMDTYMRRKCQECRLRKCRQAGMREECVLSEEQIRLKKLKRQEEEQAHATSLPPRASSPPQILPQLSPEQLGMIEKLVAAQQQCNRRSFSDRLRVTPWPMAPDPHSREARQQRFAHFTELAIVSVQEIVDFAKQLPGFLQLSREDQIALLKTSAIEVMLLETSRRYNPGSESITFLKDFSYNREDFAKAGLQVEFINPIFEFSRAMNELQLNDAEFALLIAISIFSADRPNVQDQLQVERLQHTYVEALHAYVSIHHPHDRLMFPRMLMKLVSLRTLSSVHSEQVFALRLQDKKLPPLLSEIWDVHE
On to B1, for which the binding entry in assay [1] was “binds”.

B2: liver X receptor beta (LXRβ) (protein, UniProt P55055 1-460)
chain: MSSPTTSSLDTPLPGNGPPQPGAPSSSPTVKEEGPEPWPGGPDPDVPGTDEASSACSTDWVIPDPEEEPERKRKKGPAPKMLGHELCRVCGDKASGFHYNVLSCEGCKGFFRRSVVRGGARRYACRGGGTCQMDAFMRRKCQQCRLRKCKEAGMREQCVLSEEQIRKKKIRKQQQESQSQSQSPVGPQGSSSSASGPGASPGGSEAGSQGSGEGEGVQLTAAQELMIQQLVAAQLQCNKRSFSDQPKVTPWPLGADPQSRDARQQRFAHFTELAIISVQEIVDFAKQVPGFLQLGREDQIALLKASTIEIMLLETARRYNHETECITFLKDFTYSKDDFHRAGLQVEFINPIFEFSRAMRRLGLDDAEYALLIAINIFSADRPNVQEPGRVEALQQPYVEALLSYTRIKRPQDQLRFPRMLMKLVSLRTLSSVHSEQVFALRLQDKKLPPLLSEIWDVHE
On to B2, for which, in assay [1], the binding entry is “binds”.

B3: LXRα truncation, amino acids 166-447 (C-terminus with hinge domain and LBD) (domain or fragment, UniProt Q13133 166-447)
chain: ECVLSEEQIRLKKLKRQEEEQAHATSLPPRASSPPQILPQLSPEQLGMIEKLVAAQQQCNRRSFSDRLRVTPWPMAPDPHSREARQQRFAHFTELAIVSVQEIVDFAKQLPGFLQLSREDQIALLKTSAIEVMLLETSRRYNPGSESITFLKDFSYNREDFAKAGLQVEFINPIFEFSRAMNELQLNDAEFALLIAISIFSADRPNVQDQLQVERLQHTYVEALHAYVSIHHPHDRLMFPRMLMKLVSLRTLSSVHSEQVFALRLQDKKLPPLLSEIWDVHE
B3: the binding result in assay [1] is listed as “binds”.

B4: ChREBPα low glucose inhibitory domain (LID), amino acids 1-178 (domain or fragment, UniProt Q99MZ3-1 1-178)
chain: MARALADLSVNLQVPRVVPSPDSDSDTDLEDPSPRRSAGGLHRSQVIHSGHFMVSSPHSDSLTRRRDQEGPVGLADFGPRSIDPTLTHLFECLSLAYSGKLVSPKWKNFKGLKLLCRDKIRLNNAIWRAWYIQYVQRRKSPVCGFVTPLQGSEADEHRKPEAVILEGNYWKRRIEVVM
For the molecule B4, in assay [2], the binding result was “binds”.

B5: carbohydrate responsive element-binding protein alpha (ChREBPα), full-length (protein, UniProt Q99MZ3-1 1-864)
chain: MARALADLSVNLQVPRVVPSPDSDSDTDLEDPSPRRSAGGLHRSQVIHSGHFMVSSPHSDSLTRRRDQEGPVGLADFGPRSIDPTLTHLFECLSLAYSGKLVSPKWKNFKGLKLLCRDKIRLNNAIWRAWYIQYVQRRKSPVCGFVTPLQGSEADEHRKPEAVILEGNYWKRRIEVVMREYHKWRIYYKKRLRKSSREGDFLAPKQVEGGWPPPERWCEQLFSSVVPVLLGGSEEEPGGRQLLDLDCFLSDISDTLFTMTQPSPSSLQLPPEDAYVGNADMIQPDLTPLQPSLDDFMEISDFFTNYRPPQTPTSSNYIESPSFGPMADSLFSSGILAPEMPSPASSSSSSGMTPHSGNTRLQARNSCSGPLDPNPFLSSEFLLPEDPKTKIPPAPGPTPLLPFPTPVKVHGLEPCTPSPFPTMAPPPSLLPEESLLSARFPFTSAPPAPGVSTLPAPTTFVPTPQPGPGPVPFSVDHLPHGYLEPVFGPHFTVPQGMQPRCKPSSPSPGGQKASPPTLASATASPTATATARDNNPCLTQLLRAAKPEQALEPPTMPGTLLRPPESPQDTVSEIPRARAFFPPIPAPTPPRPPPGPATLAPPRSLVVPKAERLSPPASSGSERRLSGDLNSIQPSGALSVHLSPPQTVLSRGRVDNNKMENRRITHISAEQKRRFNIKLGFDTLHGLVSTLSAQPSLKVSKATTLQKTAEYILMLQQERAAMQEEAQQLRDEIEELNAAINLCQQQLPATGVPITHQRFDQMRDMFDDYVRTRTLHNWKFWVFSILIRPLFESFNGMVSTASLHSLRQTSLAWLEQYCSLPALRPTVLNSLRQLSTSTSILTDPSLVPEQATRAVTEGTLGRPL
B5: the binding entry in assay [2] was “binds”.
